Drawing on PMC6338785, this text covers binding for three molecules.

Sequences of proteins named here, by UniProt entry; tags and fusion partners are left off.
UniProt P06537: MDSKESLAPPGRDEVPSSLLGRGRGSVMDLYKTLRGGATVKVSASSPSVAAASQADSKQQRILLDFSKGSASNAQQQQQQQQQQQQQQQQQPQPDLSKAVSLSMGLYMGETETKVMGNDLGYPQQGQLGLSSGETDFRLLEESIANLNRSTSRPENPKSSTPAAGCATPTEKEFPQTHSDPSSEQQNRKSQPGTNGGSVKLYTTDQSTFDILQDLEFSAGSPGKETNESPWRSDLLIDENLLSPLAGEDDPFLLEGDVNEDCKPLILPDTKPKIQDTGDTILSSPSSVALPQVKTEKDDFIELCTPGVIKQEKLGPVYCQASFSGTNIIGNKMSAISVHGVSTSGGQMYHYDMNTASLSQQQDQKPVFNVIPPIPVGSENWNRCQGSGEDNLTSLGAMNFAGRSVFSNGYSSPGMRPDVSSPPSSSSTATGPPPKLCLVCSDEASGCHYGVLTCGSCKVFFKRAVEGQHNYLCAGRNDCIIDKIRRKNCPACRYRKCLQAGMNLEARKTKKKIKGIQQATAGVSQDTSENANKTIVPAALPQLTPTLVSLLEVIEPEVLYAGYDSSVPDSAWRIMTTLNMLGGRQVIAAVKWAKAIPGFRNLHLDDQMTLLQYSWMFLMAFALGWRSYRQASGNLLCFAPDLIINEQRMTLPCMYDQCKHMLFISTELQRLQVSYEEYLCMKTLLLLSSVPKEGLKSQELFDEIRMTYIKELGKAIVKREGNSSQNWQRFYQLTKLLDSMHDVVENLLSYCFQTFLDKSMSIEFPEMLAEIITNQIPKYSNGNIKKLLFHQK

Results are given in words; binding and its absence hold for the method and conditions named. In cells and extracts the contact can be indirect. Here binding means that the protein was enriched with, or labelled near, the bait; the list need not be complete. For some assays here: A no says only that the protein was not detected with the bait.

The target in assay [1] is Glucocorticoid Receptor (mouse (endogenous in liver)) (UniProt P06537). Briefly: condition: only in E47ΔLKO livers (E47 deleted in hepatocytes); affinity purification with mass spectrometry; ChIP-MS as for the controls, but in livers of Dex-injected Alb-Cre x E47 flox/flox (E47ΔLKO) mice, which lack E47 in hepatocytes; IP with rabbit anti-GR against rabbit IgG; three replicates.

Assay [2] has the same target. The assay is described as follows: affinity purification with mass spectrometry; ChIP-MS: formaldehyde cross-linked, sonicated chromatin from livers of Dex-injected control mice; IP with rabbit anti-GR against rabbit IgG, protein G Dynabeads, washes up to 500 mM NaCl, 1% Triton; on-bead digest; three replicates.

B1: Heterogeneous nuclear ribonucleoprotein L Hnrnpl (protein, UniProt Q8R081 1-586)
chain: MSRRLLPRAEKRRRRLEQRQQPDEQLRRAGAMVKMAAAGGGGGGGRYYGGGNEGGRAPKRLKTENAGDQHGGGGGGGSGAAGGGGGENYDDPHKTPASPVVHIRGLIDGVVEADLVEALQEFGPISYVVVMPKKRQALVEFEDVLGACNAVNYAADNQIYIAGHPAFVNYSTSQKISRPGDSDDSRSVNSVLLFTILNPIYSITTDVLYTICNPCGPVQRIVIFRKNGVQAMVEFDSVQSAQRAKASLNGADIYSGCCTLKIEYAKPTRLNVFKNDQDTWDYTNPNLSGQGDPGSNPNKRQRQPPLLGDHPAEYGGPHGGYHSHYHDEGYGPPPPHYEGRRMGPPVGGHRRGPSRYGPQYGHPPPPPPPPDYGPHADSPVLMVYGLDQSKMNCDRVFNVFCLYGNVEKVKFMKSKPGAAMVEMADGYAVDRAITHLNNNFMFGQKMNVCVSKQPAIMPGQSYGLEDGSCSYKDFSESRNNRFSTPEQAAKNRIQHPSNVLHFFNAPLEVTEENFFEICDELGVKRPTSVKVFSGKSERSSSGLLEWDSKSDALETLGFLNHYQMKNPNGPYPYTLKLCFSTAQHAS
Consider B1, for which the values for the binding entry in assay [1] and in assay [2] were “no binding” and “binds”, respectively.

B2: HNF4α (protein, UniProt P49698 1-474)
chain: MRLSKTLAGMDMADYSAALDPAYTTLEFENVQVLTMGNDTSPSEGANLNSSNSLGVSALCAICGDRATGKHYGASSCDGCKGFFRRSVRKNHMYSCRFSRQCVVDKDKRNQCRYCRLKKCFRAGMKKEAVQNERDRISTRRSSYEDSSLPSINALLQAEVLSQQITSPISGINGDIRAKKIANITDVCESMKEQLLVLVEWAKYIPAFCELLLDDQVALLRAHAGEHLLLGATKRSMVFKDVLLLGNDYIVPRHCPELAEMSRVSIRILDELVLPFQELQIDDNEYACLKAIIFFDPDAKGLSDPGKIKRLRSQVQVSLEDYINDRQYDSRGRFGELLLLLPTLQSITWQMIEQIQFIKLFGMAKIDNLLQEMLLGGSASDAPHTHHPLHPHLMQEHMGTNVIVANTMPSHLSNGQMCEWPRPRGQAATPETPQPSPPSGSGSESYKLLPGAITTIVKPPSAIPQPTITKQEAI
Take B2: the binding entry in assay [2] is on record as “binds”.

B3: Epithelial splicing regulatory protein 2 Esrp2 (protein, UniProt Q8K0G8 1-717)
chain: MTPPPPPPPPPGPDPAVDSATDPCPEPQSLVVLFGATAGALGPDLGSDETDLILLVWQVVEPRSRQVGTLHKSLVRAEAAALSPQCREASGLSADSLARAESLDKVLQQFSQLVSGDVALLGGGPYVLCTDGQQLLRQVLHPEASRKNLVLPDTFFSFYDLRREFHMQHPSTCSARDLTVGTMAQDLGLETDATEDDFGVWEVKTMVAVILHLLEGSNGQLFSKPEVVKQKYETGPCSKADVVDNETVVRARGLPWQSSDQDVARFFKGLNIARGGVALCLNAQGRRNGEALIRFVDSEQRDLALQRHKHHMGVRYIEVYKATGEEFVKIAGGTSLEVARFLSREDQVILRLRGLPFSAGPTDVLGFLGPECPVTGGADGLLFVRHPDGRPTGDAFALFACEELAQAALRRHKGMLGKRYIELFRSTAAEVQQVLNRYAASPLLPTLTAPLLPIPFPLAGGTGRDCVRLRGLPYTATIEDILSFLGEAAADIRPHGVHMVLNQQGRPSGDAFIQMMSVERALAAAQRCHKKMMKERYVEVVPCSTEEMSRVLMGGSLSRSGLSPPPCKLPCLSPPTYATFQATPALIPTETTALYPSSALLPAARVPAAATPLAYYPGPATQLYMNYTAYYPSPPVSPTTVGYLTTPPTALASTPTTMLSQPGALVRMQGVPYTAGMKDLLSVFQAYQLAPDDYTTLMPVGDPPRTVLQAPKEWVCL
Take B3: the binding result in assay [1] was “no binding”; in assay [2], “binds”.
